Source: patent US20130089499A1 (NATIONAL RESEARCH COUNCIL OF CANADA, published 2013)
These are yes or no findings as the source states them, for the method shown. Some binding calls cover weakened binding; strength is not graded here. For part of these data: Where a sequence is shown, tags or fusion partners need not be part of it.

The chains behind the UniProt entries cited, without tags or fusion partners. Residues count along the entry.
UniProt P01137, residues 279-390: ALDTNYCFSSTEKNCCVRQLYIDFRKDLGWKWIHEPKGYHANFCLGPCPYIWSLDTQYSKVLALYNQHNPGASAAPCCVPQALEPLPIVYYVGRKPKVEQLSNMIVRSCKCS
UniProt P10600, residues 301-412: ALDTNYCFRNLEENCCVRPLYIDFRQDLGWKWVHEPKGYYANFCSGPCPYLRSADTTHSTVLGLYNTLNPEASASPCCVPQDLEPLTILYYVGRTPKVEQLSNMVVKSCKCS

Experiments:
TGF-β1 [1] = molecular target: T1, TGF-β1 (UniProt P01137 279-390); assay: SPR solution competition with TGF-β1
TGF-β3 [2] = molecular target: TGF-β3 (UniProt P10600); assay: SPR (Biacore), immobilised TGF-β3
TGF-β3 [3] = molecular target: TGF-β3 (UniProt P10600); assay: SPR (Biacore), conditioned medium over immobilised TGF-β3
TGF-β3 [4] = molecular target: TGF-β3 (UniProt P10600); assay: SPR (Biacore), conditioned medium diluted 1:20 over 270 RUs immobilised TGF-β3, data normalised to 100 RUs max response
TGF-β3 [5] = molecular target: TGF-β3 (UniProt P10600); assay: SPR (Biacore), diluted conditioned media from transfected 293 cells injected over immobilised TGF-β3, blank surface subtracted
TGF-β1 [6] = molecular target: T1, TGF-β1; assay: SPR (Biacore) direct binding, immobilised TGF-β1
TGF-β2 [7] = molecular target: T2, TGF-β2 (UniProt P61812 303-414); assay: SPR (Biacore) direct binding, immobilised TGF-β2
T2 sequence (looked up): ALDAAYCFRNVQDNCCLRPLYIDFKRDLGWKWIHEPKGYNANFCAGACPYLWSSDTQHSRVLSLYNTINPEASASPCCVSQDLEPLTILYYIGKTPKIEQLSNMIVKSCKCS

TGF-β3 [8] = molecular target: TGF-β3 (UniProt P10600); assay: SPR (Biacore) direct binding, immobilised TGF-β3
TGF-β1 [9] = molecular target: T1, TGF-β1; assay: SPR (Biacore), 100 nM injected over immobilised TGF-β1
TGF-β3 [10] = molecular target: TGF-β3 (UniProt P10600); assay: SPR (Biacore), 100 nM injected over immobilised TGF-β3
TGF-β1 [11] = molecular target: T1, TGF-β1; assay: SPR (Biacore), 100 nM injected over 500 RUs immobilised TGF-β1
TGF-β3 [12] = molecular target: TGF-β3 (UniProt P10600); assay: SPR (Biacore), 100 nM injected over 500 RUs immobilised TGF-β3
TGF-β2 [13] = molecular target: T2, TGF-β2; assay: SPR (Biacore), 100 nM injected over immobilised TGF-β2
TGF-β1 [14] = molecular target: T1, TGF-β1; assay: SPR solution competition, 5 nM TGF-β1, free ligand measured on the 1D11 surface

Measured: binding

B1: N-His (TβRIIb)^2 (designed binder)
chain: APMAEGGGQNHHHHHHHHGGSFNPRIPPHVQKSVNNDMIVTDNNGAVKFPQLCKFCDVRFSTCDNQKSCMSNCSITSICEKPQEVCVAVWRKNDENITLETVCHDPKLPYHDFILEDAASPKCIMKEKKKPGETFFMCSCSSDECNDNIIFSEEYNTSNPDIPPHVQKSDVEMEAQKDEIICPSCNRTAHPLRHINNDMIVTDNNGAVKFPQLCKFCDVRFSTCDNQKSCMSNCSITSICEKPQEVCVAVWRKNDENITLETVCHDPKLPYHDFILEDAASPKCIMKEKKKPGETFFMCSCSSDECNDNIIFSEEYNTSNPD
notes: TβRII ectodomain followed by a TβRIIb ectodomain, giving a 60-residue linker, with an N-terminal His tag; also called (TβRII)^2 trap having a 60 amino acid linker
binds: TGF-β1 [1]

B2: Prototype (TβRII)^2 (designed binder)
chain: TIPPEQKLISEEDLLHVQKSVNNDMIVTDNNGAVKFPQLCKFCDVRFSTCDNQKSCMSNCSITSICEKPQEVCVAVWRKNDENITLETVCHDPKLPYHDFILEDAASPKCIMKEKKKPGETFFMCSCSSDECNDNIIFSEEYNTSNPDGGRHVQKSVNNDMIVTDNNGAVKFPQLCKFCDVRFSTCDNQKSCMSNCSITSICEKPQEVCVAVWRKNDENITLETVCHDPKLPYHDFILEDAASPKCIMKEKKKPGETFFMCSCSSDECNDNIIFSEEYNTSNPDHHHHHH
binds: TGF-β3 [2] | TGF-β3 [3] | TGF-β3 [4] | TGF-β3 [5]

B3: N-His (TβRII)^2 (designed binder)
chain: APMAEGGGQNHHHHHHHHGGSFNPRIPPHVQKSVNNDMIVTDNNGAVKFPQLCKFCDVRFSTCDNQKSCMSNCSITSICEKPQEVCVAVWRKNDENITLETVCHDPKLPYHDFILEDAASPKCIMKEKKKPGETFFMCSCSSDECNDNIIFSEEYNTSNPDIPPHVQKSVNNDMIVTDNNGAVKFPQLCKFCDVRFSTCDNQKSCMSNCSITSICEKPQEVCVAVWRKNDENITLETVCHDPKLPYHDFILEDAASPKCIMKEKKKPGETFFMCSCSSDECNDNIIFSEEYNTSNPD
notes: Two human TβRII ectodomains in tandem with the native 35-residue linker (IPP restored), an N-terminal 8xHis tag and a thrombin site; also called modified N-His (TβRII)^2; bivalent N-His (TβRII)^2
not listed: TGF-β3 [2] | TGF-β3 [3] | TGF-β3 [4] | TGF-β3 [5]
binds: all other assays above
